Some entries share one result that the patent states for a list of compounds.
test system: fall armyworm (Spodoptera frugiperda (J. E. Smith)); test: Test B: control of fall armyworm, foliar spray on corn (maize) plant; assay type: in vivo; conditions: sprayed at 50 ppm, assessed after 6 days, value is the feeding damage limit

SMILES | control efficacy (40% or less feeding damage and/or 100% mortality) [%]
O=C(NCc1cc(NC(=O)C2C(c3cc(Cl)cc(Cl)c3)C2(Cl)Cl)ccc1Br)C1CC1 (stereo not drawn) [Compound 120] | ≤ 40
O=C(NCc1cccc(NC(=O)C2C(c3cc(Cl)cc(Cl)c3)C2(Cl)Cl)c1F)C1CC1 (stereo not drawn) [Compound 22] | ≤ 40
O=C(Nc1ccc(F)c(CNC(=O)C2(F)CC2)c1)C1C(c2cc(Cl)cc(Cl)c2)C1(Cl)Cl (stereo not drawn) [Compound 84] | ≤ 40
CS(=O)(=O)CC(=O)NCc1cc(NC(=O)C2C(c3cc(F)c(Cl)c(F)c3)C2(Cl)Cl)ccc1F (stereo not drawn) [Compound 196] | ≤ 40
CCC(=O)NCc1cc(NC(=O)C2C(c3ccc4c(c3)OC(F)(F)O4)C2(Cl)Cl)ccc1F (stereo not drawn) [Compound 16] | ≤ 40
COC(=O)NCc1cc(NC(=O)C2C(c3cc(Cl)cc(Cl)c3)C2(Cl)Cl)ccc1F (stereo not drawn) [Compound 233] | ≤ 40
CC(=O)NCc1cc(NC(=O)C2C(c3cc(Cl)cc(Cl)c3)C2(Cl)Cl)ccc1Br (stereo not drawn) [Compound 121] | ≤ 40
CN(C(=O)C1C(c2ccc(F)c(Cl)c2)C1(Cl)Cl)c1ccc(Cl)c(CNC(=O)C2CC2)c1 (stereo not drawn) [Compound 150] | ≤ 40
O=C(Nc1ccc(Cl)c(CNC(=O)C(F)(F)F)c1)C1C(c2ccc(Cl)cc2Cl)C1(Cl)Cl (stereo not drawn) [Compound 215] | ≤ 40
CCOC(=O)NCc1cc(NC(=O)C2C(c3ccc(Cl)c(Cl)c3)C2(Cl)Cl)ccc1Cl (stereo not drawn) [Compound 41] | ≤ 40
CCC(=O)NCc1cc(NC(=O)C2C(c3ccc(F)c(F)c3)C2(Cl)Cl)ccc1Cl (stereo not drawn) [Compound 92] | ≤ 40
O=C(Nc1ccc(F)c(CNC(=O)C(F)(F)F)c1)C1C(c2ccc(Cl)c(Cl)c2)C1(Cl)Cl (stereo not drawn) [Compound 80] | ≤ 40
O=C(Nc1ccc(Cl)c(CNC(=O)C(F)(F)F)c1)C1C(c2cc(Cl)cc(Cl)c2)C1(Cl)Cl (stereo not drawn) [Compound 50] | ≤ 40
O=C(NCc1cc(NC(=O)C2C(c3ccc(Cl)cc3Cl)C2(Cl)Cl)ccc1Cl)C1CC1 (stereo not drawn) [Compound 213] | ≤ 40
CC(=O)NCc1cc(NC(=O)C2C(c3cccc(C(F)(F)F)c3)C2(Cl)Cl)ccc1Cl (stereo not drawn) [Compound 202] | ≤ 40
O=C(CC(F)(F)F)NCc1c(F)ccc(NC(=O)C2C(c3ccc(F)c(C(F)(F)F)c3)C2(Cl)Cl)c1F (stereo not drawn) [Compound 206] | ≤ 40
N#CC1(C(=O)NCc2c(F)ccc(NC(=O)C3C(c4cc(Cl)cc(Cl)c4)C3(Cl)Cl)c2F)CC1 (stereo not drawn) [Compound 29] | ≤ 40

same assay, conditions: sprayed at 250 ppm, assessed after 6 days, value is the feeding damage limit

SMILES | control efficacy (40% or less feeding damage and/or 100% mortality) [%]
O=C(NCc1cc(NC(=O)C2C(c3cc(Cl)cc(Cl)c3)C2(Cl)Cl)ccc1Br)C1CC1 (stereo not drawn) [Compound 120] | ≤ 40
O=C(NCc1cccc(NC(=O)C2C(c3cc(Cl)cc(Cl)c3)C2(Cl)Cl)c1F)C1CC1 (stereo not drawn) [Compound 22] | ≤ 40
CC(N)C(=O)NCc1cc(NC(=O)C2C(c3ccc(F)c(C(F)(F)F)c3)C2(Cl)Cl)ccc1F.Cl (stereo not drawn) [Compound 160] | ≤ 40
CCC(=O)NCc1cc(NC(=O)C2C(c3ccc4c(c3)OC(F)(F)O4)C2(Cl)Cl)ccc1F (stereo not drawn) [Compound 16] | ≤ 40
CC(=O)NCc1cc(NC(=O)C2C(c3cc(Cl)cc(Cl)c3)C2(Cl)Cl)ccc1Br (stereo not drawn) [Compound 121] | ≤ 40
CC(N)C(=O)NCc1cc(NC(=O)C2C(c3ccc(F)c(C(F)(F)F)c3)C2(Cl)Cl)ccc1F (stereo not drawn) [Compound 157] | ≤ 40
CN(C(=O)C1C(c2ccc(F)c(Cl)c2)C1(Cl)Cl)c1ccc(Cl)c(CNC(=O)C2CC2)c1 (stereo not drawn) [Compound 150] | ≤ 40
CCOC(=O)NCc1cc(NC(=O)C2C(c3ccc(Cl)c(Cl)c3)C2(Cl)Cl)ccc1Cl (stereo not drawn) [Compound 41] | ≤ 40
O=C(NCc1cc(NC(=O)C2C(c3ccc(C(F)(F)F)cc3)C2(Cl)Cl)ccc1Cl)c1ccc(F)cc1 (stereo not drawn) [Compound 199] | ≤ 40
CCC(=O)NCc1cc(NC(=O)C2C(c3ccc(F)c(F)c3)C2(Cl)Cl)ccc1Cl (stereo not drawn) [Compound 92] | ≤ 40
CC(C)C(=O)NCc1cc(NC(=O)C2C(c3cc(Cl)c(F)c(Cl)c3)C2(Cl)Cl)ccc1Cl (stereo not drawn) [Compound 60] | ≤ 40
O=C(Nc1ccc(Cl)c(CNC(=O)C(F)(F)F)c1)C1C(c2cc(Cl)cc(Cl)c2)C1(Cl)Cl (stereo not drawn) [Compound 50] | ≤ 40
N#CC1(C(=O)NCc2c(F)ccc(NC(=O)C3C(c4cc(Cl)cc(Cl)c4)C3(Cl)Cl)c2F)CC1 (stereo not drawn) [Compound 29] | ≤ 40

test system: diamondback moth (Plutella xylostella (L.)); test: Test A: control of diamondback moth, foliar spray on mustard plant; assay type: in vivo; conditions: sprayed at 50 ppm, assessed after 6 days, value is the feeding damage limit

SMILES | control efficacy (40% or less feeding damage and/or 100% mortality) [%]
O=C(NCc1cc(NC(=O)C2C(c3cc(Cl)cc(Cl)c3)C2(Cl)Cl)ccc1Br)C1CC1 (stereo not drawn) [Compound 120] | ≤ 40
O=C(NCc1cccc(NC(=O)C2C(c3cc(Cl)cc(Cl)c3)C2(Cl)Cl)c1F)C1CC1 (stereo not drawn) [Compound 22] | ≤ 40
O=C(Nc1ccc(F)c(CNC(=O)C2(F)CC2)c1)C1C(c2cc(Cl)cc(Cl)c2)C1(Cl)Cl (stereo not drawn) [Compound 84] | ≤ 40
CS(=O)(=O)CC(=O)NCc1cc(NC(=O)C2C(c3cc(F)c(Cl)c(F)c3)C2(Cl)Cl)ccc1F (stereo not drawn) [Compound 196] | ≤ 40
COC(=O)NCc1cc(NC(=O)C2C(c3ccc(Cl)c(Cl)c3)C2(Cl)Cl)ccc1F (stereo not drawn) [Compound 232] | ≤ 40
CC(N)C(=O)NCc1cc(NC(=O)C2C(c3ccc(F)c(C(F)(F)F)c3)C2(Cl)Cl)ccc1F.Cl (stereo not drawn) [Compound 160] | ≤ 40
CCC(=O)NCc1cc(NC(=O)C2C(c3ccc4c(c3)OC(F)(F)O4)C2(Cl)Cl)ccc1F (stereo not drawn) [Compound 16] | ≤ 40
COC(=O)NCc1cc(NC(=O)C2C(c3cc(Cl)cc(Cl)c3)C2(Cl)Cl)ccc1F (stereo not drawn) [Compound 233] | ≤ 40
CC(=O)NCc1cc(NC(=O)C2C(c3cc(Cl)cc(Cl)c3)C2(Cl)Cl)ccc1Br (stereo not drawn) [Compound 121] | ≤ 40
CN(C(=O)C1C(c2ccc(F)c(Cl)c2)C1(Cl)Cl)c1ccc(Cl)c(CNC(=O)C2CC2)c1 (stereo not drawn) [Compound 150] | ≤ 40
O=C(Nc1ccc(Cl)c(CNC(=O)C(F)(F)F)c1)C1C(c2ccc(Cl)cc2Cl)C1(Cl)Cl (stereo not drawn) [Compound 215] | ≤ 40
CCOC(=O)NCc1cc(NC(=O)C2C(c3ccc(Cl)c(Cl)c3)C2(Cl)Cl)ccc1Cl (stereo not drawn) [Compound 41] | ≤ 40
CCC(=O)NCc1cc(NC(=O)C2C(c3ccc(F)c(F)c3)C2(Cl)Cl)ccc1Cl (stereo not drawn) [Compound 92] | ≤ 40
CC(C)C(=O)NCc1cc(NC(=O)C2C(c3cc(Cl)c(F)c(Cl)c3)C2(Cl)Cl)ccc1Cl (stereo not drawn) [Compound 60] | ≤ 40
O=C(Nc1ccc(F)c(CNC(=O)C(F)(F)F)c1)C1C(c2ccc(Cl)c(Cl)c2)C1(Cl)Cl (stereo not drawn) [Compound 80] | ≤ 40
O=C(Nc1ccc(Cl)c(CNC(=O)C(F)(F)F)c1)C1C(c2cc(Cl)cc(Cl)c2)C1(Cl)Cl (stereo not drawn) [Compound 50] | ≤ 40
O=C(NCc1cc(NC(=O)C2C(c3ccc(Cl)cc3Cl)C2(Cl)Cl)ccc1Cl)C1CC1 (stereo not drawn) [Compound 213] | ≤ 40
CC(=O)NCc1cc(NC(=O)C2C(c3cccc(C(F)(F)F)c3)C2(Cl)Cl)ccc1Cl (stereo not drawn) [Compound 202] | ≤ 40
O=C(CC(F)(F)F)NCc1c(F)ccc(NC(=O)C2C(c3ccc(F)c(C(F)(F)F)c3)C2(Cl)Cl)c1F (stereo not drawn) [Compound 206] | ≤ 40
N#CC1(C(=O)NCc2c(F)ccc(NC(=O)C3C(c4cc(Cl)cc(Cl)c4)C3(Cl)Cl)c2F)CC1 (stereo not drawn) [Compound 29] | ≤ 40

same assay, conditions: sprayed at 250 ppm, assessed after 6 days, value is the feeding damage limit

SMILES | control efficacy (40% or less feeding damage and/or 100% mortality) [%]
O=C(NCc1cc(NC(=O)C2C(c3cc(Cl)cc(Cl)c3)C2(Cl)Cl)ccc1Br)C1CC1 (stereo not drawn) [Compound 120] | ≤ 40
O=C(NCc1cccc(NC(=O)C2C(c3cc(Cl)cc(Cl)c3)C2(Cl)Cl)c1F)C1CC1 (stereo not drawn) [Compound 22] | ≤ 40
CC(N)C(=O)NCc1cc(NC(=O)C2C(c3ccc(F)c(C(F)(F)F)c3)C2(Cl)Cl)ccc1F.Cl (stereo not drawn) [Compound 160] | ≤ 40
CCC(=O)NCc1cc(NC(=O)C2C(c3ccc4c(c3)OC(F)(F)O4)C2(Cl)Cl)ccc1F (stereo not drawn) [Compound 16] | ≤ 40
CC(=O)NCc1cc(NC(=O)C2C(c3cc(Cl)cc(Cl)c3)C2(Cl)Cl)ccc1Br (stereo not drawn) [Compound 121] | ≤ 40
CC(N)C(=O)NCc1cc(NC(=O)C2C(c3ccc(F)c(C(F)(F)F)c3)C2(Cl)Cl)ccc1F (stereo not drawn) [Compound 157] | ≤ 40
CN(C(=O)C1C(c2ccc(F)c(Cl)c2)C1(Cl)Cl)c1ccc(Cl)c(CNC(=O)C2CC2)c1 (stereo not drawn) [Compound 150] | ≤ 40
CCOC(=O)NCc1cc(NC(=O)C2C(c3ccc(Cl)c(Cl)c3)C2(Cl)Cl)ccc1Cl (stereo not drawn) [Compound 41] | ≤ 40
O=C(NCc1cc(NC(=O)C2C(c3ccc(C(F)(F)F)cc3)C2(Cl)Cl)ccc1Cl)c1ccc(F)cc1 (stereo not drawn) [Compound 199] | ≤ 40
CCC(=O)NCc1cc(NC(=O)C2C(c3ccc(F)c(F)c3)C2(Cl)Cl)ccc1Cl (stereo not drawn) [Compound 92] | ≤ 40
CC(C)C(=O)NCc1cc(NC(=O)C2C(c3cc(Cl)c(F)c(Cl)c3)C2(Cl)Cl)ccc1Cl (stereo not drawn) [Compound 60] | ≤ 40
O=C(Nc1ccc(Cl)c(CNC(=O)C(F)(F)F)c1)C1C(c2cc(Cl)cc(Cl)c2)C1(Cl)Cl (stereo not drawn) [Compound 50] | ≤ 40
N#CC1(C(=O)NCc2c(F)ccc(NC(=O)C3C(c4cc(Cl)cc(Cl)c4)C3(Cl)Cl)c2F)CC1 (stereo not drawn) [Compound 29] | ≤ 40
